Construct, isoform or probe ends are uncertain for at least one entry. No signal at the amounts used counts as a negative. At least one verdict rests on a figure or table, not on a statement of the authors. Where a protein sequence is shown, tags need not be part of it.
Target: T1, NLS-HBD(H1)-eGFP (mouse) (UniProt O70338)
T1 sequence (looked up): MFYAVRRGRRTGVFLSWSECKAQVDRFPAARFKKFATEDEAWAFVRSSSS
Assay: EMSA
Details: EMSA: 20 nM hybrid, 125 nM-0.5 uM protein, 20 mM Tris-HCl pH 8.0, 150 mM NaCl, 5 mM MgCl2, 12.5% glycerol, 0.05% Triton X-100, 1 mM DTT, 1 h at 4 C, recombinant protein, residues 27-76

Sequence	binding result (data not shown)	binding result (label: 5'-Cy5, DNA:RNA hybrid)
GAAAUAUGGCGAGGAAAACUGAAAAAGGUGGAAAA / UUUUCCACCUUUUUCAGUUUUCCUCGCCAUAUUUC [MSR SR2 dsRNA]	no binding	
UUUUCCACCUUUUUCAGUUUUCCUCGCCAUAUUUC / GAAATATGGCGAGGAAAACTGAAAAAGGTGGAAAA [MSR SR2 RNA:DNA hybrid (RR/DF), unmodified]		binds
TTTTCCACCTTTTTCAGTTTTCCTCGCCATATTTC (double strand) [MSR SR2 dsDNA]	no binding	

Reference: PMC8191757, “m6A RNA methylation of major satellite repeat transcripts facilitates chromatin association and RNA:DNA hybrid formation in mouse heterochromatin”
